Data: patent US20220267753A1, “RATIONAL THERAPEUTIC TARGETING OF ONCOGENIC IMMUNE SIGNALING STATES IN MYELOID MALIGNANCIES VIA THE UBIQUITIN CONJUGATING ENZYME UBE2N” (CHILDREN'S HOSPITAL MEDICAL CENTER, priority 2019, published 2022)

Tested on: MOLM-13 cells
Assay: Ubiquitin-enrichment screen by mass spectrometry
Type: cell-based, human
Settings: 2 μM, 24 hs
Procedure: Details of the ubiquitin-enrichment screen are described herein. Briefly, MOLM-13 cells were treated for 24 hr. with 2 μM of UC-764864. Ubiquitin-related peptide enrichment was performed by using ubiquitin remnant motif (K-ε-GG) antibody-conjugated beads (Cell Signaling Technology, Danvers, Mass.) following the manufacturer's instructions. Tryptic peptides were loaded onto the beads, and then ubiquitin-conjugated peptides were eluted from the bead. Nanoliquid chromatography coupled to electrospray tandem mass spectrometry (nanoLC-ESI-MS/MS) analyses were performed on a TripleTof 5600+ mass spectrometer (Sciex; Concord, Ontario, Canada) coupled with a nanoLC-ultra nanoflow system (Eksigent; Dublin, Calif.) in data dependent acquisition (DDA) or data independent acquisition (DIA) modes for Sequential Window Acquisition of all Theoretical mass spectra (SWATH-MS) analysis.
MOLM-13 cells were treated for 24 hours with 2 μM of UC-764864. The identification of ubiquitinated peptides was performed as follows: approximately 3×10^8 cells were lysed in 10 mL urea-lysis buffer (20 mM HEPES pH 8.0, 9 M urea, 1 mM sodium orthovanadate, 2.5 mM sodium pyrophosphate, 1 mM β-glycerophosphate) and then sonicated at 15W×3 bursts of 15 sec with cooling on ice between each burst. The lysate was collected by centrifuge at 20,000×g, 15 min, 15° C. Protein estimation was performed by Pierce660 protein assay (ThermoFisher; Florence, Ky.). For the In-solution tryptic digestion, cell lysate proteins (10 mg) were reduced and alkylated by 4.5 mM dithiothreitol and 10 mM iodoacetamide, respectively, and then digested by 0.1 mg/mL TPCK-treated trypsin (Worthington; Lakewood, N.J.) overnight at room temperature with gentle mixing. The reaction was stopped by adding trifluoroacetic acid (TFA) to 1% final concentration. Tryptic peptides were desalted and recovered by Sep-Pak C18 cartridge (Waters; Milford, Mass.), dried by a lyophilizer and resuspended in 1.4 mL IAP buffer (Cell Signaling Technology; Denvers, Mass.) for further enrichment procedure. Ubiquitin-related peptide enrichment was performed by using ubiquitin remnant motif (K-ε-GG) antibody-conjugated beads (Cell Signaling Technology, Danvers, Mass.) following the manufacturer's instruction. Briefly, tryptic peptides in IAP buffer (1.4 mL) were loaded onto the beads, gentle mixed, and then incubated at 4° C. for 2 h. After washing the beads using 1 mL chilled HPLC-grade water three times, ubiquitin-related peptides were eluted from the bead by 0.15% TFA. The eluate was lyophilized and kept at −80° C. until used. […] To reduce redundant peptide sequencing, former MS/MS-analyzed candidate ions were excluded after its first occurrence for 12 s. The DDA data was recorded using Analyst-1T (v.1.7) software. […]

CCc1ccc(C(=O)C=CSc2nc3ccc(C)cc3[nH]2)cc1 [UC-764864, 1-(4-ethylphenyl)-3-[(6-methyl-1H-benzimidazol-2-yl)sulfanyl]prop-2-en-1-one]
peptides with a decrease in ubiquitination: 66
peptides with an increase in ubiquitination: 55
proteins differentially ubiquitinated vs DMSO: 73
peptides differentially ubiquitinated vs DMSO (fold change >|0.5|, P<0.05): 121
